Publication PMC3521008
These are yes or no findings as the source states them, for the method shown.

Sequences of proteins named here, by UniProt entry; tags and fusion partners are left off. A change or cut given only in a name is not applied to a line headed by its entry.
UniProt O75081: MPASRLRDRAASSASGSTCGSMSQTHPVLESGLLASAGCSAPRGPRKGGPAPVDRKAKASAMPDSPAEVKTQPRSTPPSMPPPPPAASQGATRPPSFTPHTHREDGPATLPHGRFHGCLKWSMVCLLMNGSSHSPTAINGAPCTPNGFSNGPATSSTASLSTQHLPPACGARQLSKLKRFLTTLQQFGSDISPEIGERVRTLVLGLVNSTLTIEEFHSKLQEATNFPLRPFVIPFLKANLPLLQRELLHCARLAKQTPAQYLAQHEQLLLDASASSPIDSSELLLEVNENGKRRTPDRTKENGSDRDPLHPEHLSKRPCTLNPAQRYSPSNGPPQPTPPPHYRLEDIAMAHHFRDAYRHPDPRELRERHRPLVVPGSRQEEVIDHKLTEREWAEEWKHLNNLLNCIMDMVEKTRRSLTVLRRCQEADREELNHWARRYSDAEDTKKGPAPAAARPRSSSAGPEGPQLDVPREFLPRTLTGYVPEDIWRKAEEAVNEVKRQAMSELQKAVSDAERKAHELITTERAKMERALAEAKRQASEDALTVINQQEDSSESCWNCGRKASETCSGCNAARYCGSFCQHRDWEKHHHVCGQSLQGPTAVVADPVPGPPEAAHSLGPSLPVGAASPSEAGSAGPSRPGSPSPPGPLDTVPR

Key:
Experiment in all cases: two-hybrid; directed assay in the pGAD-GW/pGBT9-GW system: Kaiso 298-573 with MTG16 and MTG16 deletion constructs; growth on quadruple-dropout plates (-leu, -trp, -his, -ala); empty vector bait as negative control; in triplicate
[1] = molecular target: MTG16 Δ5N (yeast two-hybrid construct)
[2] = molecular target: MTG16 Δ7N (yeast two-hybrid construct)
[3] = molecular target: MTG16 ΔNHR1 (yeast two-hybrid construct) (UniProt O75081)

binding [1]: no binding
binding [2]: no binding
binding [3]: no binding
B1: Kaiso amino acids 298-573 (yeast two-hybrid clone) (domain or fragment, UniProt Q86T24 298-573)
chain: LPNHMPSSINLLVQNQQTPNSAILTGNKANEEEEEEIIDDDDDTISSSPDSAVSNTSLVPQADTSQNTSFDGSLIQKMQIPTLLQEPLSNSLKISDIITRNTNDPGVGSKHLMEGQKIITLDTATEIEGLSTGCKVYANIGEDTYDIVIPVKDDPDEGEARLENEIPKTSGSEMANKRMKVKHDDHYELIVDGRVYYICIVCKRSYVCLTSLRRHFNIHSWEKKYPCRYCEKVFPLAEYRTKHEIHHTGERRYQCLACGKSFINYQFMSSHIKSVH
